# Results are given in words; binding and its absence hold for the method and conditions named.
# Chains of the proteins cited; added tags and fusions are not shown. Lines headed by an entry give the natural chain unless they say otherwise; changes in a name come on top.
# UniProt P02454: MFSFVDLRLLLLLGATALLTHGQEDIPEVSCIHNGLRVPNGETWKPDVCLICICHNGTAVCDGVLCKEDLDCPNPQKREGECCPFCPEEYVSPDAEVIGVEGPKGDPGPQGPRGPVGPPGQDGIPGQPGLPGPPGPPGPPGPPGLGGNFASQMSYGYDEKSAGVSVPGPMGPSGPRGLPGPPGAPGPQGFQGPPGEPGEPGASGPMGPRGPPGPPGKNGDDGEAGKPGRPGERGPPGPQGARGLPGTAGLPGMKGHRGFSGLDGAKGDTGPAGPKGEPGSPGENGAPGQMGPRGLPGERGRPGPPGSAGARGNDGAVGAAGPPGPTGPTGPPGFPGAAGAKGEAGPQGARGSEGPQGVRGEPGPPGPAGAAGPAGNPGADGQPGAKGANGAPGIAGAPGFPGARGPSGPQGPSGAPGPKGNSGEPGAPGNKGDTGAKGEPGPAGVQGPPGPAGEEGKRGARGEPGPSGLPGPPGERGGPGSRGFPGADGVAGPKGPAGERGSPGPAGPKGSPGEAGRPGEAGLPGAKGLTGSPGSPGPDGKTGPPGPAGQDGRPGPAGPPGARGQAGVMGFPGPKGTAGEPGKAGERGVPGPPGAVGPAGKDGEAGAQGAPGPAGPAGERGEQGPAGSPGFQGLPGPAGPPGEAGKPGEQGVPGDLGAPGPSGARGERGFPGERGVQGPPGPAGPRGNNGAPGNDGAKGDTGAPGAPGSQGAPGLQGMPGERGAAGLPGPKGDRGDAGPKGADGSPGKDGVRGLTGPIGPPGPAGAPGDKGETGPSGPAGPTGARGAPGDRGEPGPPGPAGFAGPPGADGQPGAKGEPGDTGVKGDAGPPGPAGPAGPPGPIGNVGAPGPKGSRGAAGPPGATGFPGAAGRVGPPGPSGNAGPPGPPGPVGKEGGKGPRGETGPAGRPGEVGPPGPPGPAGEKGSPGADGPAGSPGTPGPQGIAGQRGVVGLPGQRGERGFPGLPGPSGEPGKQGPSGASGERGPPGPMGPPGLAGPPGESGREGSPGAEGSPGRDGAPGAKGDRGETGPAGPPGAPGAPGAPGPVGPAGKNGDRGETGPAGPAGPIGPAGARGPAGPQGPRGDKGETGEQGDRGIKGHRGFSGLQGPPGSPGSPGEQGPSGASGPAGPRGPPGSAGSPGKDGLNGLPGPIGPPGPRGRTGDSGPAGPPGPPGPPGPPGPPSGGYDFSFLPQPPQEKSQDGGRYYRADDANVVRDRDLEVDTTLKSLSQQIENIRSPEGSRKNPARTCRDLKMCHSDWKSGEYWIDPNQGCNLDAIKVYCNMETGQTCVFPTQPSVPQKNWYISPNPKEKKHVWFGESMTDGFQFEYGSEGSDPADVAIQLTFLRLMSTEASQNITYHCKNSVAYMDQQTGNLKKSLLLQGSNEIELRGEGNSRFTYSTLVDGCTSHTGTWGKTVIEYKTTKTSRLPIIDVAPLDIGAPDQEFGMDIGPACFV
# Target: T1, R1R2 peptide
# T1 sequence (peptide): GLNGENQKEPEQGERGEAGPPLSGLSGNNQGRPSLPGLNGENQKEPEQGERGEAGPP
# Assay: ELISA; R1R2 coated at 20 ug/mL on 96-well plates at 4°C overnight, blocked with 1% BSA; FN or type I collagen (10 ug/mL) added for 2 h at room temperature; detected with rabbit anti-FN or anti-type I collagen antibodies and HRP secondary antibodies, absorbance at 405 nm; both purified
substance,measurement,value
rat type I collagen (from UniProt P02454 152-1207; P02466 86-1125) (complex),binding,no binding (tested: 10 μg/mL)

# From paper PMC5624629
